Values from PubChem BioAssay AID1224828 (NIAID, 2016)

Aim: 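Regulators linking TLR4 signalling to p65 nuclear translocation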 (primary screen)
Cells: mouse RAW264.7 G9 macrophage reporter cells (GFP-p65, Tnf promoter-mCherry)
Knock-down reagent: siRNA pool against mouse genes, 100 nM
Timing: 2 days siRNA transfection, then 40 min LPS before fixation
Conditions: LPS (Salmonella minnesota R595) at 10 ng/ml
Detection: 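Microscopy ratio of nuclear to perinuclear-ring GFP-p65 signal, scaled to the plate median; gene score is the average of two replicate robust z-scores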
Direction: p65 translocation robust z-score: higher = more nuclear NF-kappaB p65 after LPS than the plate median; nuclear/cytoplasmic p65 ratio: higher = more nuclear NF-kappaB p65
Active means: 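Active if robust z is above 3.3 (negative regulators) or below -1.56, the Tlr4 control median (positive regulators); activity score 50 or more; control wells not called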
Calls: active = hit (p65 shift raised or lowered); inactive = no clear change
The deposit covers about 17,000 reagents; this is a random part of them. Of all reagents, 762 (4.5%) got an active call. 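Active calls include both raised and lowered p65 entry, mostly lowered; wells with fewer than 50 cells lack a z-score.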 Raw values vary from plate to plate and are shown uncorrected. The numbers tell different reagents against one gene apart.

gene	reagent	p65 translocation robust z-score	nuclear/cytoplasmic p65 ratio, rep 1	nuclear/cytoplasmic p65 ratio, rep 2	low cell count flag	outcome
Krt8 (keratin 8)	1	0.73	1.61	1.45	enough cells to score	inactive
Or5b24 (olfactory receptor family 5 subfamily B member 24)	1	-0.63	1.51	1.45	enough cells to score	inactive
Ccl25 (C-C motif chemokine ligand 25)	1		1.39	1.2	fewer than 50 cells per well; well left out of scoring	inactive
Ccny (cyclin Y)	1	0.49	1.65	1.73	enough cells to score	inactive
BC005537 (cDNA sequence BC005537)	1	-0.57	1.34	1.75	enough cells to score	inactive
Atoh7 (atonal bHLH transcription factor 7)	1	0.35	1.56	1.65	enough cells to score	inactive
Hoxd10 (homeobox D10)	1	0.31	1.5	1.39	enough cells to score	inactive
Ubn2 (ubinuclein 2)	1	-1.08	1.39	1.64	enough cells to score	inactive
Cfap206 (cilia and flagella associated protein 206)	1	-0.56	1.33	1.33	enough cells to score	inactive
Gabra4 (gamma-aminobutyric acid type A receptor subunit alpha 4)	1	0.58	1.52	1.44	enough cells to score	inactive
Pdcd4 (programmed cell death 4)	1	1.12	1.64	1.52	enough cells to score	inactive
Pigr (polymeric immunoglobulin receptor)	1	0.56	1.54	1.51	enough cells to score	inactive
Or2aj6 (olfactory receptor family 2 subfamily AJ member 6)	1	1.24	1.7	1.67	enough cells to score	inactive
A530079E22Rik (RIKEN cDNA A530079E22 gene)	1	-0.49	1.26	1.52	enough cells to score	inactive
Ahsa2 (AHA1, activator of heat shock protein ATPase 2)	1	0.77	1.55	1.52	enough cells to score	inactive
Mag (myelin-associated glycoprotein)	1	1.7	2.07	1.72	enough cells to score	inactive
Tbl1x (transducin beta like 1 X-linked)	1	-0.81	1.45	1.36	enough cells to score	inactive
Cdkl3 (cyclin dependent kinase like 3)	1		1.6	1.6	fewer than 50 cells per well; well left out of scoring	inactive
Tbrg4 (transforming growth factor beta regulated gene 4)	1	-0.01	1.54	1.49	enough cells to score	inactive
Or5h18 (olfactory receptor family 5 subfamily H member 18)	1	0.26	1.65	1.54	enough cells to score	inactive
Vdac1 (voltage-dependent anion channel 1)	1		1.3	1.1	fewer than 50 cells per well; well left out of scoring	inactive
Akap9 (A kinase anchor protein 9)	1	1.22	1.74	1.86	enough cells to score	inactive

Next part; the last 7 above are carried over.
gene	reagent	p65 translocation robust z-score	nuclear/cytoplasmic p65 ratio, rep 1	nuclear/cytoplasmic p65 ratio, rep 2	low cell count flag	outcome
Mag (myelin-associated glycoprotein)	1	1.7	2.07	1.72	enough cells to score	inactive
Tbl1x (transducin beta like 1 X-linked)	1	-0.81	1.45	1.36	enough cells to score	inactive
Cdkl3 (cyclin dependent kinase like 3)	1		1.6	1.6	fewer than 50 cells per well; well left out of scoring	inactive
Tbrg4 (transforming growth factor beta regulated gene 4)	1	-0.01	1.54	1.49	enough cells to score	inactive
Or5h18 (olfactory receptor family 5 subfamily H member 18)	1	0.26	1.65	1.54	enough cells to score	inactive
Vdac1 (voltage-dependent anion channel 1)	1		1.3	1.1	fewer than 50 cells per well; well left out of scoring	inactive
Akap9 (A kinase anchor protein 9)	1	1.22	1.74	1.86	enough cells to score	inactive
Akap13 (A kinase anchor protein 13)	1	0.22	1.76	1.39	enough cells to score	inactive
Ntpcr (nucleoside-triphosphatase, cancer-related)	1		1.33	1.08	fewer than 50 cells per well; well left out of scoring	inactive
Or5g25 (olfactory receptor family 5 subfamily G member 25)	1	-0.5	1.6	1.49	enough cells to score	inactive
Riok1 (RIO kinase 1)	1	0.41	1.8	1.39	enough cells to score	inactive
Adgre1 (adhesion G protein-coupled receptor E1)	1	-0.8	1.39	1.47	enough cells to score	inactive
Or5w18 (olfactory receptor family 5 subfamily W member 18)	1	-1.32	1.49	1.35	enough cells to score	inactive
Ccdc25 (coiled-coil domain containing 25)	1		1.37	1.35	fewer than 50 cells per well; well left out of scoring	inactive
Trim9 (tripartite motif-containing 9)	1	-1.63	1.21	1.3	enough cells to score	active
Trim9 (tripartite motif-containing 9)	2	0.96	1.52	1.33	enough cells to score	inactive
Gtf3c6 (general transcription factor IIIC, polypeptide 6, alpha)	1	0.48	1.52	1.47	enough cells to score	inactive
Ifnlr1 (interferon lambda receptor 1)	1	-0.88	1.33	1.29	enough cells to score	inactive
Pcyox1 (prenylcysteine oxidase 1)	1	-0.23	1.37	1.25	enough cells to score	inactive
Tapbp (TAP binding protein)	1	-0.12	1.4	1.6	enough cells to score	inactive
Cxcr2 (C-X-C motif chemokine receptor 2)	1	-0.19	1.49	1.55	enough cells to score	inactive
Slc1a6	1		1.61	1.48	fewer than 50 cells per well; well left out of scoring	inactive
Cask (calcium/calmodulin dependent serine protein kinase)	1	2.27	1.9	1.67	enough cells to score	inactive
Fdxr (ferredoxin reductase)	1	-0.08	1.46	1.36	enough cells to score	inactive
Acat2 (acetyl-Coenzyme A acetyltransferase 2)	1	-0.31	1.59	1.56	enough cells to score	inactive
Cpsf7 (cleavage and polyadenylation specific factor 7)	1	-0.71	1.28	1.37	enough cells to score	inactive
Atad2 (ATPase family, AAA domain containing 2)	1	1.33	1.66	1.96	enough cells to score	inactive
Adamts5 (ADAM metallopeptidase with thrombospondin type 1 motif 5)	1	-0.46	1.54	1.56	enough cells to score	inactive
2900052N01Rik (RIKEN cDNA 2900052N01 gene)	1		0.997	1.86	fewer than 50 cells per well; well left out of scoring	inactive
Pcdhga5 (protocadherin gamma subfamily A, 5)	1	-0.72	1.42	1.1	enough cells to score	inactive
Or11j4 (olfactory receptor family 11 subfamily J member 4)	1		1.28	1.06	fewer than 50 cells per well; well left out of scoring	inactive
Gpc4 (glypican 4)	1	-0.62	1.55	1.47	enough cells to score	inactive
Tas2r102 (taste receptor, type 2, member 102)	1		1.08	1.3	fewer than 50 cells per well; well left out of scoring	inactive
Slc34a3	1		1.42	0.807	fewer than 50 cells per well; well left out of scoring	inactive
Ces1f (carboxylesterase 1F)	1	0.57	1.57	1.71	enough cells to score	inactive
Or8k33 (olfactory receptor family 8 subfamily K member 33)	1	-0.97	1.44	1.5	enough cells to score	inactive
Ptpa (protein phosphatase 2 protein activator)	1	0.21	1.5	1.46	enough cells to score	inactive
Alx4 (aristaless-like homeobox 4)	1	-0.48	1.61	1.48	enough cells to score	inactive
Trim14 (tripartite motif-containing 14)	1	0.62	1.49	1.69	enough cells to score	inactive
Magea7-ps (MAGE family member A7, pseudogene)	1	-0.64	1.56	1.5	enough cells to score	inactive
Nt5m (5',3'-nucleotidase, mitochondrial)	1	-0.11	1.72	1.5	enough cells to score	inactive
Gramd4 (GRAM domain containing 4)	1	0.81	1.75	1.92	enough cells to score	inactive
Fate1 (fetal and adult testis expressed 1)	1	1.87	1.59	1.9	enough cells to score	inactive
Esrrb (estrogen related receptor, beta)	1	-0.53	1.5	1.38	enough cells to score	inactive
